Measurements published in PubChem BioAssay AID1508600 (Functional Genomics Laboratory (NCATS/FGL), 2020).
Out of some 53,000 sequences screened, about 3,700 (7%) were called active.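 How the source made its calls: active means gene knockdowns whose robust z-score for IL-1 alpha signal is at least 2 or at most -2, so actives lie on both sides; inactive means the rest.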 The list shows a part of the results.

Experiment: Components of the Cytosolic LPS Sensing Pathway: Gene Identification via Genome-wide siRNA Screen;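 further: robust z of the log signal after scaling to non-targeting control siRNA wells of the plate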
Conditions: RAW264.7 macrophages, IL-1a HTRF, actives lie on both sides, screened at 100 nM (by protocol), cells primed 5 h with Pam3CSK4 first
In short: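 Supernatant IL-1a by HTRF from RAW264.7 cells primed with Pam3CSK4 (5 hours) and transfected with LipidA (24 hour) after 48h siRNA knockdown at 100 nM; cell viability checked with CellTiter-Glo.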

**Q.** With GGAUAUAAGGAAAACCAGATT against Rab2a as the sequence, how does the z-score read?
**A.** inactive: -0.539

**Q.** With GGGCUAUAUAUAUUUCCACTT against Asns as the sequence, how does the z-score read?
**A.** active: 2.75

**Q.** With “GCGACUUGUCCUAUUUCGATT against Csgalnact1” as the sequence, how does the z-score read?
**A.** inactive: 0.261

**Q.** With “GGUACCAUUCGUUCAAACCTT against 3830406C13Rik” as the sequence, how does the z-score read?
**A.** inactive: 0.416

**Q.** Which z-score does the source give for GGACUUUGUCAACCUGAUGTT against Rhbdl3 here?
**A.** inactive: 0.395

**Q.** With GCACCAUACUAGGAUCUGCTT against Slc24a5 as the sequence, how does the z-score read?
**A.** inactive: 0.924

**Q.** For GGUAGAGAGGAAUUCAUAATT against Lrp11, which z-score is on record?
**A.** inactive: -1.56

**Q.** With GCCUAAACCUGAGUUAUAATT against Lrig1 as the sequence, how does the z-score read?
**A.** active: 2.34

**Q.** Which z-score does the source give for ACUGGAUACUCCACUCAACTT against Olfr46 here?
**A.** inactive: -1.62

**Q.** For GCCUGUCAACUACCCAUAUTT against Ergic3, which z-score is on record?
**A.** inactive: -1.13

**Q.** With CGACUUCAUAAGGUAUGCATT against Tnfrsf22 as the sequence, how does the z-score read?
**A.** inactive: -0.793

**Q.** Which z-score does the source give for GCCGAGAUGAGCUCCUAAUTT against Krt27 here?
**A.** inactive: 1.29

**Q.** Which z-score does the source give for GGAACAGUUCAAGUGAAGCTT against Sertad2 here?
**A.** inactive: -0.0174

**Q.** Which z-score does the source give for CGCACAGACUUGCUUGGACTT against Deup1 here?
**A.** inactive: -0.557

**Q.** Which z-score does the source give for GGGAGAGUGGAUCAUCAAUTT against P2ry10 here?
**A.** inactive: -0.0942

**Q.** Which z-score does the source give for GGUUAAGGAUGCUCAAGUATT against Krt20 here?
**A.** inactive: -0.187

**Q.** Which z-score does the source give for GGGCGGUAAAGAUUUCCUUTT against Scn3b here?
**A.** inactive: 0.577

**Q.** Which z-score does the source give for GCAGUAGCGACGAAGGAUGTT against Rnf113a2 here?
**A.** active: -2.12

**Q.** For “GGAAAUAGAUCCUUUUUGATT against 2510039O18Rik”, which z-score is on record?
**A.** inactive: 0.861

**Q.** Which z-score does the source give for “GGCAACUUCACAACAUGCCTT against D630044L22Rik” here?
**A.** inactive: -0.948

**Q.** With GGAAUUUGACCUUACUACUTT against Usb1 as the sequence, how does the z-score read?
**A.** inactive: 1.31

**Q.** For GGCUGUGCUUUCUCUUGAUTT against Map11, which z-score is on record?
**A.** inactive: -0.314

**Q.** For GAACUCAAAGAAUAAAUCCTT against Ms4a6d, which z-score is on record?
**A.** inactive: -0.0867

**Q.** For GCAAGCUUCAAGAAGUAAGTT against Cenph, which z-score is on record?
**A.** inactive: 0.224

**Q.** Which z-score does the source give for GGAGAAGUAGAUGUAUAUGTT against Prkar1b here?
**A.** inactive: -1.4

**Q.** With GCUCUUUUAAUAUCACUGCTT against Heyl as the sequence, how does the z-score read?
**A.** inactive: -0.516

**Q.** For GGAAGAAUGUGGAGGCUAUTT against Tnni1, which z-score is on record?
**A.** inactive: 0.367

**Q.** For GGUCGUAUGGUGCUCAAGATT against Pira1, which z-score is on record?
**A.** inactive: -1.76

**Q.** With CCUCUUAAAACUAAAUCUGTT against Snw1 as the sequence, how does the z-score read?
**A.** inactive: 0.208

**Q.** With GGAUCCUAAAACUGAGGAATT against Crtc2 as the sequence, how does the z-score read?
**A.** inactive: 0.22

**Q.** For GGUUUAUGGAGCAAGUGAUTT against Actr3, which z-score is on record?
**A.** active: -2.07

**Q.** Which z-score does the source give for GCCUCAUAAAUAACGUGAATT against Nts here?
**A.** inactive: 0.156

**Q.** Which z-score does the source give for GGAAGCCUUUCAGAAGACCTT against Akr1b8 here?
**A.** inactive: -0.184

**Q.** Which z-score does the source give for GGUUAACACCUUCAUGUCCTT against Ntsr1 here?
**A.** inactive: 0.00916

**Q.** For GGGUAGUUGUUACUGUUGUTT against Sprr2f, which z-score is on record?
**A.** inactive: 0.229

**Q.** Which z-score does the source give for CGAGUGACCAAAAUUUGGATT against Spata31 here?
**A.** inactive: 1.06

**Q.** Which z-score does the source give for GCUGGGAAGACGUAUGAGGTT against Snx9 here?
**A.** inactive: 0.549

**Q.** With GGAAUGAGUUUCACAGUUUTT against Fech as the sequence, how does the z-score read?
**A.** inactive: -0.291

**Q.** With CCAGUCAGUCAAUUAGACUTT against Pja1 as the sequence, how does the z-score read?
**A.** inactive: 1.17

**Q.** With GCUUCACCAGAGAUGGAAUTT against Slfn3 as the sequence, how does the z-score read?
**A.** inactive: -0.566

**Q.** Which z-score does the source give for CGAAUGACCUCGAUAGCUGTT against Gm5082 here?
**A.** inactive: 0.195

**Q.** For GCGAUUAAGAGCACUUGACTT against Aoc2, which z-score is on record?
**A.** inactive: -0.599

**Q.** For GGUGAGAAUUUGAGAAAGATT against Dgka, which z-score is on record?
**A.** inactive: -0.719

**Q.** With GGAACUAAAUGUGAAACAUTT against Ift52 as the sequence, how does the z-score read?
**A.** active: -2.07

**Q.** For GGCUAGAUCCAAUGCUUCUTT against Dlgap1, which z-score is on record?
**A.** inactive: 0.65

**Q.** With CCGCAUGUAUCAUAUCAAATT against Dhx37 as the sequence, how does the z-score read?
**A.** inactive: 1.08

**Q.** For GGUCUUUGUCAUCAAAGGUTT against Slc6a20a, which z-score is on record?
**A.** inactive: -0.071

**Q.** Which z-score does the source give for GCCUGAAGAGAGUCUUAUCTT against Bnip5 here?
**A.** inactive: 1.09

**Q.** With GCAGCAGUGUGGUGACUGUTT against Erich2 as the sequence, how does the z-score read?
**A.** inactive: -0.0516

**Q.** For GGGUUGGUAUAGCUUUCAGTT against Zfp619, which z-score is on record?
**A.** inactive: -0.948

**Q.** For GGAAGCAAGCAACAUCUUGTT against Ttc34, which z-score is on record?
**A.** inactive: -0.0543

**Q.** For GGAGGAAAAGGAAAGAGAATT against Fgd1, which z-score is on record?
**A.** inactive: -0.638

**Q.** For GGUAUGCUAACAGAACACGTT against Nr1h4, which z-score is on record?
**A.** active: 3.15
